Data set [1] deals with T1, FOXP1 forkhead domain (canonical, exon 18) (Homo sapiens) (UniProt Q9H334).
T1 sequence (limits assumed): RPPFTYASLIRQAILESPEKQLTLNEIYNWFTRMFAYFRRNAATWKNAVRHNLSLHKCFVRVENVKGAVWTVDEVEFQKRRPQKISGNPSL
The data set can be described thus: EMSA. Conditions: purified recombinant protein, protein details: GST fusion.

Data set [2] deals with T2, FOXP1-ES forkhead domain (exon 18b) (Homo sapiens).
T2 sequence (limits assumed): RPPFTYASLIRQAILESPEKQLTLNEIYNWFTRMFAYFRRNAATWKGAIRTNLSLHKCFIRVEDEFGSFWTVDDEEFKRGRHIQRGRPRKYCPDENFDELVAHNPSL
The data set can be described thus: EMSA. Conditions: purified recombinant protein, protein details: GST fusion.

Setting [3] is: motif bound by both isoforms, label: radiolabeled.
[4] abbreviates: FOXP1-ES preferred over FOXP1, label: radiolabeled.
[5] abbreviates: PBM-derived high-affinity FOXP1-ES motif, label: radiolabeled.

Weaker means in comparison with the reference protein, sequence or condition of that experiment. Tags and fusion partners may be left off the protein sequences shown. The exact form of at least one protein or probe is not confirmed.

Turning to “AACAACAACCAACAACAA (double strand) [AACAACAA x2 probe]”, the binding result in data set [1] (setting [3]) and in data set [2] (setting [3]) was “binds” in each case.

As for “AATAAACACCAATAAACA (double strand) [AATAAACA x2 probe]”, the binding result in data set [1] (setting [4]) is on record as “binds more weakly”. Take “ATACAAAACCATACAAAA (double strand) [ATACAAAA x2 probe]”: the binding result in data set [2] (setting [5]) is “binds”. In the case of “CAACACAACCCAACACAA (double strand) [CAACACAA x2 probe]”, the binding result in data set [2] (setting [5]) was “binds”. With “CGATACAACCCGATACAA (double strand) [CGATACAA x2 probe]”, the binding result was “binds more weakly” in data set [1] (setting [4]) and “binds” in data set [2] (preferentially bound by FOXP1-ES, also top PBM motif, label: radiolabeled).

With “CTAAACAACCCTAAACAA (double strand) [CTAAACAA x2 probe]”, in data set [2] (setting [5]), the binding result is recorded as “binds”. Regarding “GTAAACAACCGTAAACAA (double strand) [GTAAACAA x2 probe]”, the binding result is “binds” in data set [1] (0.2-3.2 pmol protein, preferred by FOXP1, also top PBM motif) and “binds more weakly” in data set [2] (0.2-3.2 pmol protein, FOXP1 preferred over FOXP1-ES).

The values above are taken from patent publication US20140134737, “Alternative Splicing Modulators and Splice Variants and Their Use in the Control and Detection of Pluripotency and Differentiation” (Governing Council of the University of Toronto, published 2014).
